Results of single-concentration screens

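Growth of Mycobacterium tuberculosis over 3 days (7H9 medium with glucose and tyloxapol); the read-out is not stated. Tested at 500 µM. The record gives no direction; compounds that gave an IC50 in retests scored well above the rest, so higher reads as more growth inhibition. Of about 18,000 compounds tested this way, about 1,400 (7.9%) reached 50% or more in at least one test.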

The filed quantity is “Percent Effect” (%).
The controls that fix the scale are not given in the record; negative values are as filed.
This is an unselected part of the compounds tested.

CNC(=O)[C@H](C)NS(=O)(=O)c1ccccc1F gave 10.83%.
N[C@@H]1CC[C@@H]1NC(=O)CCn1cc(Cl)cn1 gave 20.06%.
CN(CC(N)=O)C1CCN(CCc2ccccn2)CC1 gave -4.228%.
CC(C)OCCn1cnc(C#N)c1C#N gave 11.73%.
CCN(CC)C(=O)Nc1cc(OC)c(OC)c(OC)c1 gave 17.34%.
CNCc1cnc(C)cn1 gave 7.914%.
CC(Sc1nc[nH]n1)C(=O)NCc1ccccc1 (stereo unspecified) gave 8.28%.
CCn1cnnc1CNC(=O)N1CCCN(C)CC1 gave -3.238%.
N#Cc1ccc2c(c1)CCCCC2=O gave 20.5%.
O=C(NCCN1C(=O)c2ccccc2S1(=O)=O)C1CC1 gave 3.862%.
CN1CCN(C(=O)c2cnn[nH]2)C(c2ccccc2)C1 (stereo unspecified) gave 9.476%.
CCC(N)CN(C)CCCN(C)C (stereo unspecified) gave 7.963%.
O=C(NCc1nnc[nH]1)c1cccc(Br)c1Cl gave 4.104%.
CCCOc1ccc(NS(=O)(=O)N(C)C)cc1Cl gave 17.65%.
COCCOC1CCN(c2cc(C)ccn2)CC1 gave 44.44%.
Nc1ncn(Cc2ccccn2)n1 gave -0.2795%.
CNc1cccc2cccnc12 gave -55.31%.
CCC1CCCCN1CCC(=O)NC(N)=O (stereo unspecified) gave -7.394%.
COc1ccccc1C(=O)N(C)C1CCN(C)CC1 gave 2.234%.
O=C(CCn1cccn1)N1CCc2sccc2C1 gave 59.18%.
CNCC(=O)Nc1ccc(Br)cn1 gave 16.67%.
c1cn2c(n1)CCCC2 gave 4.275%.
O=c1cccnn1CC(O)COCc1ccccc1F (stereo unspecified) gave 31.37%.
Nc1ccc(C(=O)N2CCN(C3CC3)CC2)cn1 gave 26.41%.
CC(C(=O)Nc1ccc(C(N)=O)cc1)n1cccn1 (stereo unspecified) gave 5.573%.
COc1ccc(Cl)cc1NC(=O)Cn1ccnn1 gave -8.296%.
O=S(=O)(NCCO)c1ccc2ccccc2c1 gave 9.139%.
CC(C)(C)OC(=O)NCC1CCCNC1 (stereo unspecified) gave -4.788%.
CCOC(=O)c1ccncc1C(=O)Nc1nccs1 gave 9.565%.
CC(C)(C)C(O)CN (stereo unspecified) gave 7.211%.
CC(C)(O)CCc1ccc(CN2CCNC(=O)C2)cc1 gave 30.07%.
CCCN(CC(=O)NC)C(=O)c1ccc(C)[nH]c1=O gave 5.438%.
CN(C)CCC(=O)Nc1cccc(-c2ncco2)c1 gave 4.081%.
CCNCc1cccnc1N(C)CCc1ccccn1 gave 17.53%.
CN(Cc1ccco1)C(=O)NCc1cscn1 gave 41.87%.
O=C1CCC(=O)N1CCSc1ccc2ccccc2n1 gave -0.07108%.
Cc1cc(Br)cc(C(=O)NCc2nccc(N)n2)c1 gave 5.345%.
COC(=O)COc1ccc2c(c1)OCO2 gave 43.17%.
CC(C)CN1CCOC(CNC(=O)c2cccs2)C1 (stereo unspecified) gave 37.72%.
CC(=O)Nc1ccc(S(=O)(=O)n2cccn2)cc1 gave 7.976%.
CN(Cc1ccsc1)S(=O)(=O)c1ccc(C(N)=O)cc1 gave 29.63%.
Cn1c(=O)oc2cc(CO)ccc21 gave 10.89%.
CC(C)C(NCC(N)=O)c1ccc(F)cc1 (stereo unspecified) gave 57.41%.
CCc1cc(C(=O)NC(CC)[C@H]2C[C@@H](O)C2)[nH]n1 (stereo partly specified) gave 10.88%.
CC1(C)CC(=O)CN1C(=O)c1cc(Cl)c2c(c1)OCO2 gave 8.085%.
CCC1(CO)CCCN1 (stereo unspecified) gave -15.67%.
CCn1c(C(=O)N2CCOCC2C)cc2ccccc21 (stereo unspecified) gave 63.49%.
CCNc1ncc(C(=O)NC(CCOC)C(C)C)s1 (stereo unspecified) gave 0.9251%.
CN1CCC(CNC(=O)COc2cccnc2)C1 (stereo unspecified) gave 3.69%.
Cc1ccnc(SCC(N)=O)c1C#N gave -3.032%.
NC(=O)CN1CCC(C(=O)Nc2ccc(Br)cn2)CC1 gave 18.67%.
CCn1ccc(CN2CCOCS2(=O)=O)n1 gave 12.57%.
Cc1nc(C(N)=O)ccc1N gave -4.558%.
Cn1cc(C(=O)NCCNS(C)(=O)=O)c2ccccc21 gave 17.3%.
CS(=O)(=O)CCNc1ccnc2ccc(Br)cc12 gave -4.075%.
CN(C(=O)c1n[nH]c2ccccc12)[C@H]1COC[C@@H]1O gave 22.97%.
N[C@H]1CN(C(=O)Cn2cc(Cl)cn2)C[C@@H]1C1CC1 gave 8.002%.
Cc1ccc(OCc2csc(CS(C)(=O)=O)n2)nc1 gave 5.174%.

Repeated from the top, 7 entries:

CNC(=O)[C@H](C)NS(=O)(=O)c1ccccc1F gave 10.83%.
N[C@@H]1CC[C@@H]1NC(=O)CCn1cc(Cl)cn1 gave 20.06%.
CN(CC(N)=O)C1CCN(CCc2ccccn2)CC1 gave -4.228%.
CC(C)OCCn1cnc(C#N)c1C#N gave 11.73%.
CCN(CC)C(=O)Nc1cc(OC)c(OC)c(OC)c1 gave 17.34%.
CNCc1cnc(C)cn1 gave 7.914%.
CC(Sc1nc[nH]n1)C(=O)NCc1ccccc1 (stereo unspecified) gave 8.28%.

Source: ChEMBL document CHEMBL3988442, “University of Dundee, Small-Polar-MMV Screening Library” (2021).